Article PMC5366948
Substitutions are numbered along the chain they refer to. Results are given in words; binding and its absence hold for the method and conditions named. For some of these results: In cells and extracts the contact can be indirect. Some binding calls cover weakened binding; strength is not graded here. For some of these results: Sequences can lack the tags named with a protein.

Chains of the proteins cited; added tags and fusions are not shown. Residues count along the entry.
UniProt P50750, residues 7-332: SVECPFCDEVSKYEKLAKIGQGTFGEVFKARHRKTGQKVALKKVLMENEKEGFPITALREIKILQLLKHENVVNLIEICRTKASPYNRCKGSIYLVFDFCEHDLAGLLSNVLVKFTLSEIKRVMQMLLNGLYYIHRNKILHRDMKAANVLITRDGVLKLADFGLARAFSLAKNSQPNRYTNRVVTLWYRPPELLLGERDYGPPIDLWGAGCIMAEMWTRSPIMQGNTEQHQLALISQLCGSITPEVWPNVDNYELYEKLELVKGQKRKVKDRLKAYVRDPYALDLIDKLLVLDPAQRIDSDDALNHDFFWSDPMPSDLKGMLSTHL
UniProt O60563, residues 1-266: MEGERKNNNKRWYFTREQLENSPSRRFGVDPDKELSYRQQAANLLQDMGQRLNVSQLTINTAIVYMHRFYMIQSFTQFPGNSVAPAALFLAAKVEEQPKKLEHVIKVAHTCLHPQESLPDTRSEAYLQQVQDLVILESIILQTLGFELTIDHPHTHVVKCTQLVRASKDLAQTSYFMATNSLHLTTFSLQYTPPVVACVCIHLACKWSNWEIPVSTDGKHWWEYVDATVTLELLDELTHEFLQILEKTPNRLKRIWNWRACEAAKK
UniProt P04608: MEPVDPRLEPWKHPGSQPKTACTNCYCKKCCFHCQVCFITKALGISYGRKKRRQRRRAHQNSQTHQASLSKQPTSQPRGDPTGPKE

B1: endogenous PJA2 (RING-H2 finger E3 ubiquitin ligase) (enzyme, UniProt O43164 1-708)
chain: MSQYTEKEPAAMDQESGKAVWPKPAGGYQTITGRRYGRRHAYVSFKPCMTRHERSLGRAGDDYEVLELDDVPKENSSGSSPLDQVDSSLPSEPIFEKSETEIPTCGSALNQTTESSQSFVAVHHSEEGRDTLGSSTNLHNHSEGEYIPGACSASSVQNGIALVHTDSYDPDGKHGEDNDHLQLSAEVVEGSRYQESLGNTVFELENREAEAYTGLSPPVPSFNCEVRDEFEELDSVPLVKSSAGDTEFVHQNSQEIQRSSQDEMVSTKQQNNTSQERQTEHSPEDAACGPGHICSEQNTNDREKNHGSSPEQVVRPKVRKLISSSQVDQETGFNRHEAKQRSVQRWREALEVEESGSDDLLIKCEEYDGEHDCMFLDPPYSRVITQRETENNQMTSESGATAGRQEVDNTFWNGCGDYYQLYDKDEDSSECSDGEWSASLPHRFSGTEKDQSSSDESWETLPGKDENEPELQSDSSGPEEENQELSLQEGEQTSLEEGEIPWLQYNEVNESSSDEGNEPANEFAQPAFMLDGNNNLEDDSSVSEDLDVDWSLFDGFADGLGVAEAISYVDPQFLTYMALEERLAQAMETALAHLESLAVDVEVANPPASKESIDGLPETLVLEDHTAIGQEQCCPICCSEYIKDDIATELPCHHFFHKPCVSIWLQKSGTCPVCRRHFPPAVIEASAAPSSEPDPDAPPSNDSIAEAP

Columns and labels:
[1] = molecular target: CDK9 (7-332) with a 6x His-tag (UniProt P50750); assay: co-expression and co-purification of a complex; CDK9 (7-332) with 6x His-tag and cyclin T1 (1-266) in pFastBac Dual, Tat (1-86) in pFastBac1; complex expressed and purified as previously described (ref. 52)
cyclin T1 (1-266) = cyclin T1 (1-266) (UniProt O60563); assay: as above
[2] = molecular target: T1, PJA2 r2m RING domain mutant (C634A, C671A) with a C-terminal 3x-FLAG tag (UniProt O43164); assay: co-IP; FLAG IP: FLAG-tagged PJA2 variants co-transfected with vector, Tat-STREP or Tat ΔK (+K41)-STREP into HEK 293T cells, lysate on magnetic M2-FLAG resin 3 h at 4 °C, eluted with 3x FLAG peptide; probed with anti-STREP, anti-CYCT1 and anti-CDK9
T1 sequence: B1 chain with C634A, C671A

[3] = molecular target: T2, PJA2 wild type with a C-terminal 3x-FLAG tag (UniProt O43164); assay: as above
T2 sequence: B1 chain

[4] = molecular target: HIV-1 Tat protein (HXB2 isolate), wild type, with a C-terminal 2x-STREP tag (HIV-1 (HXB2 isolate)) (UniProt P04608); assay: co-IP; STREP IP: STREP-tagged bait transfected into HEK 293T cells, lysate (50 mM Tris-HCl pH 8.0, 150 mM NaCl, 2 mM MgCl2, 0.5% Triton X-100, 0.2% Na-deoxycholate) on Streptactin Superflow resin 3 h at 4 °C; endogenous PJA2 detected by Western blotting with anti-PJA2; RNA-independent

Row | Molecule | binding [1] | binding (cyclin T1 (1-266)) | binding [2] | binding [3] | binding [4]
1 | HIV-1 Tat (1-86), from the pFastBac1 vector (from UniProt P04608 1-86) | binds | binds | – | – | –
2 | HIV-1 Tat protein (HXB2 isolate), wild type, with a C-terminal 2x-STREP tag (from UniProt P04608 1-86) | – | – | binds | binds | –
3 | positive transcription elongation factor b (P-TEFb), endogenous, composed of Cyclin T1 (CCNT1) and cyclin-dependent kinase 9 (CDK9) (from UniProt O60563 1-726; P50750 1-372) (complex) | – | – | binds | binds | –
4 | B1 | – | – | – | – | binds
